Data source: PubChem BioAssay AID1159578 (Peter MacCallum Cancer Centre, 2015)
The deposit covers about 18,000 reagents; shown is an unselected part. About 1,030 of all reagents (5.7%) were called active. 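Inactive calls also include pools with fewer than 3300 nuclei, whose migration was not assessed.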 The raw values are shown without normalisation. Further read-outs or replicates are left out here. No sequences are given here.

Assay: 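Genome-wide hunt for genes controlling movement of lymphatic endothelial cells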 (primary screen)
Cell system: human lymphatic endothelial cells
Knock-down reagent: siRNA pool against human genes, 40 nM
Duration: 48 h after transfection
Detection: 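High-content imaging of dye-stained cells in a scratch assay measures filled wound area and nuclei per well; duplicate means given as ratio to mock and robust z-score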
Scale: migration robust z-score: higher = faster migration into the scratch; nuclei per well: higher = more cells in the well
Rule for the call: 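Migration changed when robust z exceeds 2 or falls below -2 and mean nuclei number is at least 3300; otherwise not called changed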
Meaning of the calls: active = migration changed; inactive = no migration change, or too few cells

| gene knocked down | migration robust z-score | nuclei per well, duplicate mean | Call |
| --- | --- | --- | --- |
| MRPS31 | 2.23 | 6258 | active |
| ADM | 0.22 | 6314 | inactive |
| CNOT12 | 0 | 5795 | inactive |
| RPF2 | -0.78 | 4348 | inactive |
| KDSR | 0.15 | 5831 | inactive |
| C1R | -1.56 | 5398 | inactive |
| C5AR1 | -2.96 | 4164 | active |
| NDUFAF7 | -0.6 | 6002 | inactive |
| ARRB2 | 1.57 | 6624 | inactive |
| ATP6V0A4 | -0.48 | 7596 | inactive |
| RBMS1 | -1.22 | 5102 | inactive |
| TIE1 | -0.05 | 4690 | inactive |
| OR2T10 | -0.6 | 4960 | inactive |
| OXCT2 | -0.67 | 4586 | inactive |
| RDM1 | -1.54 | 5896 | inactive |
| RHOXF1 | -0.32 | 5392 | inactive |
| IL3 | -1.63 | 4424 | inactive |
| HIVEP2 | -0.11 | 4659 | inactive |
| CDYL | -0.29 | 5218 | inactive |
| XKRY | 0.25 | 4744 | inactive |
| WDPCP | -1.04 | 4384 | inactive |

Targets above whose gene name starts with C or c:
| gene knocked down | migration robust z-score | nuclei per well, duplicate mean | Call |
| --- | --- | --- | --- |
| CNOT12 | 0 | 5795 | inactive |
| C1R | -1.56 | 5398 | inactive |
| C5AR1 | -2.96 | 4164 | active |
| CDYL | -0.29 | 5218 | inactive |

Next results:
| gene knocked down | migration robust z-score | nuclei per well, duplicate mean | Call |
| --- | --- | --- | --- |
| KIF20A | -0.52 | 5683 | inactive |
| MYH3 | 1.43 | 5702 | inactive |
| KHDRBS2 | -0.4 | 5490 | inactive |
| PLA1A | -1.66 | 5032 | inactive |
| DUS3L | -2.02 | 1782 | inactive |
| CYLC2 | -0.39 | 6203 | inactive |
| FRG2B | -0.33 | 5246 | inactive |
| TMEM140 | -0.38 | 6148 | inactive |
| CDY2B | -2.1 | 5010 | active |
| ADAMTS19 | -2.02 | 5106 | active |
| RDH8 | 0.28 | 5966 | inactive |
| TMEM107 | -1.03 | 5960 | inactive |
| P3H2 | -0.46 | 4993 | inactive |
| ZNF746 | 0 | 6469 | inactive |
| TBC1D3C | -0.88 | 6344 | inactive |
| IQCJ | -1.36 | 7422 | inactive |
| MYL12A | -0.06 | 5757 | inactive |
| DENND2D | 1.68 | 4996 | inactive |
